Measured values reported in PMC11438954 (Nature Communications, 2024).

By UniProt entry, the sequences of proteins in these tests, tags left out.
UniProt P35499, whole entry P1158S: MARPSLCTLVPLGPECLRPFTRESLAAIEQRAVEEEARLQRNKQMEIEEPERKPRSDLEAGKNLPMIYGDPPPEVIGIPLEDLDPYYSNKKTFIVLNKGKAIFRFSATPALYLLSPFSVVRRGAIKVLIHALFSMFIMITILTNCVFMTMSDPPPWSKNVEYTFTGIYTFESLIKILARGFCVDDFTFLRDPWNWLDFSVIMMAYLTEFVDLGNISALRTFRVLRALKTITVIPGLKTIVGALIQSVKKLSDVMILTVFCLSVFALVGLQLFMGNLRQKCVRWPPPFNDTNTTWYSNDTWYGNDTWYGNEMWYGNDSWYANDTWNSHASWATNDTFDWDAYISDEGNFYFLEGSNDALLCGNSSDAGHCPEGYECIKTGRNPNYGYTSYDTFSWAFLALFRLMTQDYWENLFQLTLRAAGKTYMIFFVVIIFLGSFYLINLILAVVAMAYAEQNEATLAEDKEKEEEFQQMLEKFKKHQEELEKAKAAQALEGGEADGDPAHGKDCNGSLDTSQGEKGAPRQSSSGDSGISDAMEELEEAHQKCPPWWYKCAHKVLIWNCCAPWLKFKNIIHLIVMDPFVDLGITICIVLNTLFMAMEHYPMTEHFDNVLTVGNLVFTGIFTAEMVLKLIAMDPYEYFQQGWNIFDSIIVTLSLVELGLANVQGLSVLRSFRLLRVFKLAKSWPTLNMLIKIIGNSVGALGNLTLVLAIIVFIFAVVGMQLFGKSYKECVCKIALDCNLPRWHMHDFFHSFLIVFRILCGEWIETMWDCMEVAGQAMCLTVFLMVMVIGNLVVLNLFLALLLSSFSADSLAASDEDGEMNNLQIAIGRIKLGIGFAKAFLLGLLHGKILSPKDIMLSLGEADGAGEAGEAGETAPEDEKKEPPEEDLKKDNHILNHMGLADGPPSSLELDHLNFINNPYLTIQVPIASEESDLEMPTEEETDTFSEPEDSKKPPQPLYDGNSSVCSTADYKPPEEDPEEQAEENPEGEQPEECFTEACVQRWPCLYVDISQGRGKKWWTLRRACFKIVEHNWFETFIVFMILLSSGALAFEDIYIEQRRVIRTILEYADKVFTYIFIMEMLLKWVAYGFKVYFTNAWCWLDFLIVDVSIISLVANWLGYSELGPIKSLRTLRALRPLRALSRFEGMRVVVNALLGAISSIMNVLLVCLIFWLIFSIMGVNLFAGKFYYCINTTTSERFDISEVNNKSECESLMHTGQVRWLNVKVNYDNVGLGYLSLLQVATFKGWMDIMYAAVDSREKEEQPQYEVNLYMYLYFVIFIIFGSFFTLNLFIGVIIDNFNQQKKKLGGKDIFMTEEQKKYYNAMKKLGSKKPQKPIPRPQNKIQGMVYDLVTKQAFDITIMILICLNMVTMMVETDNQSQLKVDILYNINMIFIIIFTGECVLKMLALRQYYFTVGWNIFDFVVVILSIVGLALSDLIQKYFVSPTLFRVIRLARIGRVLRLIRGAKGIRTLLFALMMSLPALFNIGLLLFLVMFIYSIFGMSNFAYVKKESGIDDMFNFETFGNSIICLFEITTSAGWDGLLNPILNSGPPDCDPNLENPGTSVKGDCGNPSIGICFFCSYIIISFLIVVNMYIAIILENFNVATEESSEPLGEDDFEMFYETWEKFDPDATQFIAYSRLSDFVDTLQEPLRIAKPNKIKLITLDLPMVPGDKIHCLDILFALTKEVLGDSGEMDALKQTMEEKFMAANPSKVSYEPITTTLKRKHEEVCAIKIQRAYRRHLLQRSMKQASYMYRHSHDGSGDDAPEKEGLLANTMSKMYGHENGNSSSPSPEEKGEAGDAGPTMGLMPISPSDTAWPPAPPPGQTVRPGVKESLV

Target: T1, hNav1.4 (Homo sapiens, UniProt P35499, P1158S)
T1 construct: gene SCN4A

SMILES: Nc1nc2ccc(OC(F)(F)F)cc2s1 [riluzole, 2-amino-6-(trifluoromethoxy)benzothiazole]
- whole-cell patch clamp (SSI shift and late sodium current) at 1 and 5 μM: stabilised the inactivation in this variant, significantly shifting the SSI curve to more negative potentials, compared to vehicle
